The nature of data set [1]: Stability of the analytes in beagle dog plasma (bench top, refrigerator, freeze–thaw, autosampler, short and long term storage). Type of data set: physicochemical. The following applies: for Mean stability sample ±SD: n = 5.
The conditions of data set [2]: beagle, dog, in vivo.
Setting [3] is: autosampler, 6°C, 55 h, processed plasma samples, HQC.
Setting [4] is: autosampler, 6°C, 55 h, processed plasma samples, LQC.
Setting [5] is: freeze–thaw after 3rd cycle at −80°C, dog plasma, HQC.
[6] abbreviates: freeze–thaw after 3rd cycle at −80°C, dog plasma, LQC.
The mark [7] stands for this setting: long term, −80°C, 120 days, dog plasma, HQC.
The mark [8] stands for this setting: long term, −80°C, 120 days, dog plasma, LQC.
[9] abbreviates: refrigerator, 4°C, 30 h, dog plasma, HQC.
Where [10] appears, read: short term, −20°C, 48 h, dog plasma, HQC.
Where [11] appears, read: short term, −20°C, 48 h, dog plasma, LQC.

SMILES strings stand for the structures.

`COCC(=O)Nc1cc(Sc2ccccc2)ccc1N/C(=N\C(=O)OC)NC(=O)OC` [Febantel, febantel]: the Accuracy worked out at 106.65% in data set [1] (setting [3]); 107.01% in data set [1] (setting [4]); 98.05% in data set [1] (bench top, room temperature, 8 h, dog plasma, HQC, % of nominal concentration); 101.59% in data set [1] (bench top, room temperature, 8 h, dog plasma, LQC, % of nominal concentration); 98.12% in data set [1] (setting [5]); 102.52% in data set [1] (setting [6]). Besides, the Accuracy in data set [1] (setting [7]) came to 99.52%; in data set [1] (setting [8]), 97.70%; in data set [1] (setting [9]), 97.41%; in data set [1] (setting [10]), 100.85%; in data set [1] (setting [11]) it was 96.29%. Also, the “Mean stability sample ±SD” value worked out at 95.98 ± 3.18 ng/mL in data set [1] (setting [3]); 6.42 ± 0.40 ng/mL in data set [1] (setting [4]); 88.24 ± 1.25 ng/mL in data set [1] (bench top, room temperature, 8 h, dog plasma, HQC (added 180 ng/mL PYR/OXF, 675 PRA, 90 FBT, 450 FEN)); 6.10 ± 0.38 ng/mL in data set [1] (bench top, room temperature, 8 h, dog plasma, LQC (added 12 ng/mL PYR/OXF, 45 PRA, 6 FBT, 30 FEN)); 88.31 ± 1.14 ng/mL in data set [1] (setting [5]); 6.15 ± 0.48 ng/mL in data set [1] (setting [6]). Besides, the “Mean stability sample ±SD” value amounted to 89.57 ± 3.12 ng/mL in data set [1] (setting [7]); 5.86 ± 0.22 ng/mL in data set [1] (setting [8]); 87.67 ± 3.15 ng/mL in data set [1] (setting [9]); 5.78 ± 0.56 ng/mL in data set [1] (refrigerator, 4°C, 30 h, dog plasma, LQC); 90.76 ± 4.24 ng/mL in data set [1] (setting [10]); 5.75 ± 0.51 ng/mL in data set [1] (setting [11]). For the same compound, the “GMR (Test/Reference) of Cmax” value in data set [2] was 98.40%.

Source of the values: paper PMC11864945 (Frontiers in Pharmacology, 2025).
